Drawing on PubChem BioAssay AID192 (DTP/NCI, 2004), this text covers survivor count and T/C for 23 compounds.

The list does not hold the whole screen: it gathers tests that were run many times, whatever their T/C, doses with no T/C, and many T/C values between a quarter and a half above the control. Further doses and runs are listed elsewhere. T/C: endpoint of the treated group in % of that of the vehicle group. Some entries give survivors of the animals treated and no T/C: the source holds a T/C of zero for them, seemingly a mark for toxic or unscored doses. Some survivor counts are full or nearly so, which does not show that the dose was tolerated: survival well below the control is almost never listed, so the zero probably covers shortened survival too. Survivors were counted at the toxicity check, usually on the fifth day, unless a day is given; later deaths do not show. Schedule codes are those of the source, read here as Q, the interval in days (D) or hours (H), X, the number of doses. Some doses were run more than once; the values are given in rising order. Some structures stand for samples that the source files as different forms (salt, stereo form or complex); doses refer to the form tested. Where survival is the endpoint, this PubChem deposit counts one and a half times the control or more as active, and values a quarter to a half above the control carry no call in these data; other NCI protocols may use other cut-offs.

For this test, the system named is BDF1 mice, B16 melanoma ip, median survival T/C. In words: NCI In Vivo Anticancer Drug Screen. Data for tumor model B16 Melanoma (intraperitoneal) in B6D2F1 (BDF1) mice. The conditions noted are these: T/C endpoint: median survival time, higher T/C = longer survival. In outline:
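Transplantable tumor model; survival or tumor size measured; reported as T/C, treated over vehicle control.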

[1] abbreviates: dose: 50.0 mg/kg/injection, schedule: Q01DX009 (ip), vehicle: saline.
[2] abbreviates: dose: 100.0 mg/kg/injection, schedule: Q01DX009 (ip), vehicle: saline.
The mark [3] stands for this setting: dose: 100.0 mg/kg/injection, schedule: Q01DX009 (ip), vehicle: Klucel (hydroxypropylcellulose) (HPC).
Where [4] appears, read: dose: 200.0 mg/kg/injection, schedule: Q01DX009 (ip), vehicle: Klucel (hydroxypropylcellulose) (HPC).
Where [5] appears, read: dose: 200.0 mg/kg/injection, schedule: Q04DX003 (ip), vehicle: saline with Tween-80.
Where [6] appears, read: dose: 400.0 mg/kg/injection, schedule: Q04DX003 (ip), vehicle: saline with Tween-80.
Setting [7] is: dose: 32.0 mg/kg/injection, schedule: Q01DX009 (ip), vehicle: saline with Tween-80.
[8] abbreviates: dose: 50.0 mg/kg/injection, schedule: Q01DX009 (ip), vehicle: saline with Tween-80.
The mark [9] stands for this setting: dose: 100.0 mg/kg/injection, schedule: Q01DX009 (ip), vehicle: saline with Tween-80.
[10] abbreviates: dose: 400.0 mg/kg/injection, schedule: Q01DX009 (ip), vehicle: Klucel (hydroxypropylcellulose) (HPC).
Where [11] appears, read: dose: 25.0 mg/kg/injection, schedule: Q01DX009 (ip), vehicle: saline with Tween-80.
The mark [12] stands for this setting: dose: 100.0 mg/kg/injection, schedule: Q04DX003 (ip), vehicle: saline with Tween-80.

For `COc1cccc(/C=N/C(=S)NC2(C)C3CCC(C3)C2(C)C)c1O` (centres undefined), the survivor count runs as follows: (dose: 12.5 mg/kg/injection, schedule: Q01DX009 (ip), vehicle: olive oil, sesame oil, peanut oil) 10 of 10; (dose: 25.0 mg/kg/injection, schedule: Q01DX009 (ip), vehicle: olive oil, sesame oil, peanut oil) 10 of 10; (dose: 50.0 mg/kg/injection, schedule: Q01DX009 (ip), vehicle: olive oil, sesame oil, peanut oil) 9 of 10; (dose: 100.0 mg/kg/injection, schedule: Q01DX009 (ip), vehicle: olive oil, sesame oil, peanut oil) 10 of 10; (dose: 200.0 mg/kg/injection, schedule: Q01DX009 (ip), vehicle: olive oil, sesame oil, peanut oil) 10 of 10; (dose: 400.0 mg/kg/injection, schedule: Q01DX009 (ip), vehicle: olive oil, sesame oil, peanut oil) 10 of 10.
In the case of `CC1(C)N=C(N)N=C(N)N1c1ccc(CCC(=O)Nc2ccc(S(=O)(=O)F)cc2)cc1`, under setting [1], the T/C is 138 % of control. The survivor count runs as follows: under setting [2], 6 of 6; (dose: 200.0 mg/kg/injection, schedule: Q01DX009 (ip), vehicle: saline) 5 of 6; (dose: 400.0 mg/kg/injection, schedule: Q01DX009 (ip), vehicle: saline) 6 of 6.
For `CCCCNC(=O)Nc1ccc(C)c(Cl)c1`, the survivor count (dose: 70.0 mg/kg/injection, schedule: Q01DX009 (ip), vehicle: Klucel (hydroxypropylcellulose) (HPC)) is 10 of 10; the survivor count (dose: 140.0 mg/kg/injection, schedule: Q01DX009 (ip), vehicle: Klucel (hydroxypropylcellulose) (HPC)) is given as 10 of 10; the survivor count (dose: 280.0 mg/kg/injection, schedule: Q01DX009 (ip), vehicle: Klucel (hydroxypropylcellulose) (HPC)) is given as 10 of 10.
With `CCCCCC[C@H]([C@H](C)O)n1cnc2c(N)ncnc21`, the survivor count under setting [3] was 10 of 10; the survivor count under setting [4] is 0 of 10 and 9 of 10.
`CCCCN(CCCC)C(=O)c1[nH]cnc1/N=N\N(C)C`: the survivor count under setting [5] is reported as 9 of 10 and the survivor count under setting [6] is listed as 0 of 10.
Take `O=C(CCN1CCCCCCC1)c1cccc([N+](=O)[O-])c1`: under setting [4], the survivor count is listed as 3 of 10.
Turning to `O=C(Nc1ccc(C2=NCCN2)cc1)c1ccc(C(=O)Nc2ccc(C3=NCCN3)cc2)c(Cl)c1`, the survivor count reads like this: under setting [7], 2 of 6; under setting [8], 0 of 10; (dose: 64.0 mg/kg/injection, schedule: Q01DX009 (ip), vehicle: saline with Tween-80) 0 of 6; under setting [9], 0 of 10.
For `CCOC(=O)C(C)C(=O)O` (centres undefined), the survivor count reads like this: under setting [9], 10 of 10; (dose: 200.0 mg/kg/injection, schedule: Q01DX009 (ip), vehicle: saline with Tween-80) 10 of 10.
With `CS(=O)(=O)c1ccnc2ccccc12`, the survivor count under setting [4] was 0 of 10 and the survivor count under setting [10] was 0 of 10.
As for `C=C(C)[C@]12CC(C)C34OC(/C=C\C=C\CCCCCCCCC)(O[C@@H]1[C@@H]3[C@@H]1O[C@]1(CO)[C@@H](O)[C@]1(O)C(=O)C(C)=C[C@@H]41)O2` (some centres undefined), the survivor count (dose: 0.38 mg/kg/injection, schedule: Q01DX009 (ip), vehicle: alcohol) is reported as 10 of 10; the survivor count (dose: 0.75 mg/kg/injection, schedule: Q01DX009 (ip), vehicle: alcohol) is 10 of 10; the survivor count (dose: 0.75 mg/kg/injection, schedule: Q01DX009 (ip), vehicle: saline + alcohol) was 8 of 10 and 9 of 10; the survivor count (dose: 1.5 mg/kg/injection, schedule: Q01DX009 (ip), vehicle: alcohol) is listed as 9 of 10; the survivor count (dose: 1.5 mg/kg/injection, schedule: Q01DX009 (ip), vehicle: saline + alcohol) was 4 of 10; the survivor count (dose: 3.0 mg/kg/injection, schedule: Q01DX009 (ip), vehicle: alcohol) was 0 of 10. Besides, the survivor count (dose: 3.0 mg/kg/injection, schedule: Q01DX009 (ip), vehicle: saline + alcohol) is 0 of 10.
Consider `CCCCNC(=O)Nc1cccc(C)c1C`, for which the survivor count under setting [4] is listed as 7 of 10.
As for `Nc1ccc2nc3ccc(N)cc3[n+](-c3ccccc3)c2c1`, the survivor count (dose: 80.0 mg/kg/injection, schedule: Q04DX003 (ip), vehicle: saline with Tween-80) is on record as 0 of 10.
With `C[n+]1ccc(Nc2ccc(NC(=O)c3ccc(Nc4cc[n+](C)c5ccc(N)cc45)cc3N)cc2)cc1`, the survivor count reads like this: (dose: 25.0 mg/kg/injection, schedule: Q01DX009 (ip), vehicle: saline) 6 of 6; under setting [7], 10 of 10; (dose: 50.0 mg/kg/injection, schedule: Q01DX009 (ip), vehicle: Klucel (hydroxypropylcellulose) (HPC)) 7 of 10; under setting [1], 6 of 6; (dose: 64.0 mg/kg/injection, schedule: Q02DX009 (ip), vehicle: Klucel (hydroxypropylcellulose) (HPC)) 8 of 10 and 9 of 10; under setting [3], 4 of 10. Moreover, the survivor count under setting [2] is 1 of 6.
For `C1#CCCCCCC#CCCCC1`, the survivor count is, setting by setting: under setting [11], 10 of 10; under setting [12], 10 of 10; under setting [5], 8 of 10.
As to `Oc1cccc2c1[O][Sb][O]2`, the survivor count was 10 of 10 (dose: 12.5 mg/kg/injection, schedule: Q01DX009 (ip), vehicle: saline with Tween-80); 10 of 10 under setting [11]; 9 of 9 under setting [8]; 1 of 10 under setting [9].
Take `CCCN(CCC)C(=O)c1ccncc1`: the survivor count under setting [4] is 10 of 10.
Regarding `COC1C(OC(=O)c2ccc(C)[nH]2)C(O)C(Oc2ccc3c(O)c(NC(=O)c4ccc(O)c(CC=C(C)C)c4)c(=O)oc3c2Cl)OC1(C)C` (centres undefined), the survivor count is listed as 8 of 10 (dose: 50.0 mg/kg/injection, schedule: Q01DX009 (ip), vehicle: other) and 8 of 10 (dose: 400.0 mg/kg/injection, schedule: Q01DX009 (ip), vehicle: other).
Consider `Cc1cccc2cc3c(ccc4ccccc43)c[n+]12`, for which, where the note is “dose: 8.0 mg/kg/injection, schedule: Q01DX009 (ip), vehicle: saline sonified”, the survivor count is 6 of 6.
`COc1ccccc1N1C(=O)C=CC1=O`: the survivor count runs as follows: (dose: 2.5 mg/kg/injection, schedule: Q01DX009 (ip), vehicle: saline with Tween-80) 10 of 10; (dose: 5.0 mg/kg/injection, schedule: Q01DX009 (ip), vehicle: saline with Tween-80) 10 of 10; (dose: 10.0 mg/kg/injection, schedule: Q01DX009 (ip), vehicle: saline with Tween-80) 10 of 10.
`Oc1ccccc1C=NCC[N-]CCN=Cc1ccccc1O.[Cu+]`: the survivor count was 10 of 10 (dose: 1.56 mg/kg/injection, schedule: Q01DX009 (ip), vehicle: Klucel (hydroxypropylcellulose) (HPC)); 9 of 10 (dose: 3.13 mg/kg/injection, schedule: Q01DX009 (ip), vehicle: Klucel (hydroxypropylcellulose) (HPC)); 2 of 10 (dose: 6.25 mg/kg/injection, schedule: Q01DX009 (ip), vehicle: Klucel (hydroxypropylcellulose) (HPC)).
Turning to `CC1=C2CC3CCC(C)C2(CC1)C3(C)C` (centres undefined), the survivor count under setting [12] is 10 of 10, the survivor count under setting [5] was 10 of 10 and the survivor count under setting [6] is reported as 5 of 10.
For the compound `CN(C)N=Nc1cn[nH]c1C(N)=O`, the survivor count under setting [10] is listed as 10 of 10.
For `CCN(CC)P(=O)(N1CC1C)N1CC1C` (centres undefined), the survivor count (dose: 75.0 mg/kg/injection, schedule: Q01DX009 (ip), vehicle: saline) is on record as 10 of 10.
